Reference: PubChem BioAssay AID1508597 (Cure First, 2020)
Assay: 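Survival screen with siRNA in ovarian cancer cells derived from patients, with or without rucaparib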 (primary screen). System: human ovarian carcinoma lines grown from tumours: OCI-P5x (papillary serous) and OCI-C5x (clear cell). Reagent: siRNA pool against human genes, 1.25 pmol siRNA per well. Timing: 72 h or 96 h, depending on the cell culture. Treatment: rucaparib 20 µM (about IC30) or vehicle, present until read-out. Rucaparib or vehicle: Rucaparib. Cell line: OCI-C5x (clear cell). Measured: 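Luminescent ATP-based viability assay read 72 or 96 h after transfection, depending on culture, given as normalised percent viability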. Scale: viability, normalised: higher = more viable cells remaining. Hit rule: 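Active when normalised viability falls below 80 percent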. Meaning of the calls: active = viability under 80%; inactive = viability 80% or more.
Shown is a random part of the about 2,100 reagents, in one setting of the screen. 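Calls flag viability under 80% in either arm, not effects specific to rucaparib; the reference for percent is not stated.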 Entries without a mark were called inactive. A reagent listed more than once was tested more than once; the source does not tell the runs apart. No sequences are given here. Not stated in the record: the 100% reference.

no.	Target gene	technical replicate	viability, normalised (%)
1	ALDOA	1	40.2 (active)
2	ALDOA	2	32.9 (active)
3	ALDOA	3	35.6 (active)
4	ACTG1	1	65.8 (active)
5	ACTG1	2	54.1 (active)
6	ACTG1	3	68.7 (active)
7	TESK2	1	69.2 (active)
8	TESK2	2	59.4 (active)
9	TESK2	3	69.7 (active)
10	MEN1	1	46.6 (active)
11	MEN1	2	41.4 (active)
12	MEN1	3	55.9 (active)
13	AURKA	1	67.8 (active)
14	AURKA	1	39.3 (active)
15	AURKA	2	34.1 (active)
16	AURKA	2	47.3 (active)
17	AURKA	3	54.6 (active)
18	AURKA	3	39.8 (active)
19	UBTF	1	51.6 (active)
20	UBTF	2	44.3 (active)
21	UBTF	3	36.5 (active)
22	CKMT1B	1	39.6 (active)
23	CKMT1B	2	53.5 (active)
24	CKMT1B	3	53.8 (active)
25	KDM4B	1	39.8 (active)
26	KDM4B	2	37.9 (active)
27	KDM4B	3	34.8 (active)
28	CENPO	1	65.6 (active)
29	CENPO	2	63.1 (active)
30	CENPO	3	73.3 (active)
31	NAGK	1	55.4 (active)
32	NAGK	2	42.3 (active)
33	NAGK	3	40.4 (active)

Copied from the entries so far for reference:
no.	Target gene	technical replicate	viability, normalised (%)
28	CENPO	1	65.6 (active)
29	CENPO	2	63.1 (active)
30	CENPO	3	73.3 (active)
31	NAGK	1	55.4 (active)
32	NAGK	2	42.3 (active)

Further results follow.
no.	Target gene	technical replicate	viability, normalised (%)
34	OXSR1	1	50 (active)
35	OXSR1	2	50.1 (active)
36	OXSR1	3	52.4 (active)
37	ZNF384	1	56.5 (active)
38	ZNF384	2	56.2 (active)
39	ZNF384	3	48.6 (active)
40	COPRS	1	59.2 (active)
41	COPRS	2	53.8 (active)
42	COPRS	3	72.1 (active)
43	DHX9	1	47.7 (active)
44	DHX9	1	87.3
45	DHX9	2	43 (active)
46	DHX9	2	68.4 (active)
47	DHX9	3	60.8 (active)
48	DHX9	3	40.1 (active)
49	HNRNPAB	1	55.5 (active)
50	HNRNPAB	2	43.2 (active)
51	HNRNPAB	3	53 (active)
52	PML	1	42.8 (active)
53	PML	1	49.1 (active)
54	PML	2	43.4 (active)
55	PML	2	33.2 (active)
56	PML	3	37.9 (active)
57	PML	3	51.1 (active)
58	BCL6	1	54.9 (active)
59	BCL6	2	40.4 (active)
60	BCL6	3	42.4 (active)
61	PAK4	1	54.4 (active)
62	PAK4	2	46.4 (active)
63	PAK4	3	50.1 (active)
64	H1-4	1	57.4 (active)
65	H1-4	2	51.4 (active)
66	H1-4	3	65.3 (active)
67	CHM	1	58.6 (active)
68	CHM	2	53.2 (active)
69	CHM	3	44.5 (active)
70	TADA3	1	78.3 (active)
71	TADA3	2	69.4 (active)
72	TADA3	3	59.2 (active)
73	XRCC1	1	60.8 (active)
74	XRCC1	2	68.1 (active)
75	XRCC1	3	71.8 (active)
